{"source": "patent US20190032014A1", "about": "“USING MICROBIOTA METABOLITES TO DIFFERENTIATE NAÏVE T-CELLS AND RELATED METHODS TO INDUCE OR PREVENT INFLAMMATORY CONDITIONS” (THE TEXAS A&M UNIVERSITY SYSTEM, priority 2016, published 2019)", "key": {"[1]": {"tested_on": "CD4+ CD25− naïve T cells", "assay": "In vitro naïve T cell differentiation, Th17-skew (IL-17+ by FACS)", "assay_type": "cell-based, C57BL/6 mice", "experimental": "(§1) Mesenteric lymph node (MLN) and spleen are harvested from WT or FOXP3^EGFP C57Bl/6 mice and homogenized. Spleen tissue is subjected to red blood cell lysis and pooled into a single cell suspension for counting. Counted cells are resuspended in sterile FACS buffer (PBS++ with 05% bovine serum albumin) at a concentration of ˜5×10^7 cells/mL and stained for 45 minutes at 4° C. with anti-CD4 and anti-CD25 fluorophore-conjugated monoclonal antibodies (mAb). After two washes, the stained cells are resuspended at ˜6×10^6 cells/mL in FACS buffer and immediately sorted. […] TDMMs are solubilized in DMF at 2 M and used at desired concentrations (e.g., 0.01, 0.1, 0.5 and 1.0 mM) in growth media; DMF in growth media (0.05%) is used as a solvent control.\n(§2) The % of Treg or Th17 cells are determined based on the expression of signature transcription factors, FoxP3 and Rorγt, respectively. In addition, signature cytokine markers for Treg and Th17, TGFβ or IL-17, respectively, among others are measured using intracellular cytokine staining. Since it is possible that a cell could be positive for FoxP3 and still express some IL-17, the final % of Tregs are determined as the cell population that is FoxP3+TGFβ+ Rorγt-IL-17−. Similarly, the % of Th17 cells are determined as the population that is FoxP3-TGFβ− Rorγt+IL-17+. […]"}, "[2]": {"tested_on": "CD4+ CD25− naïve T cells", "assay": "In vitro naïve T cell differentiation, Treg-skew (FoxP3+ by FACS)", "assay_type": "cell-based, C57BL/6 mice", "experimental": "as §1, §2"}, "[3]": {"tested_on": "naïve T cells", "details": "Arpaia et al. 2013; cited from earlier work"}, "[4]": {"tested_on": "CD4+ CD25− naïve T cells", "assay": "In vitro naïve T cell differentiation, Th2-skew (IL-4+)", "assay_type": "cell-based, C57BL/6 mice", "details": "Th2 skewing conditions; vs solvent control", "experimental": "(§3) When naïve CD4+ CD25− cells were cultured 72 hours in αCD3/28 coated wells with Th0-, Th1- or Th2-skew cytokines and indole or solvent control, followed by stimulation with PMA, Ionomycin and Golgi Plug for the last 5 hours of culture, no effect on the % of Th1 and Th2 cells was observed (in contrast to the significant effect that indole has on Treg and Th17 cells; see FIGS. 2A and 2B).\n(§4) CD4+ CD25− T cells were isolated to high purity (>98%) from the pooled spleen and mesenteric lymph nodes of C57BL/6 mice (Jackson Labs) with a BD FACS Aria II flow cytometer. Fc Block (BD), αCD4-efluor450 (eBioscience clone GK1.5) and αCD25-PECy7 (eBioscience clone PC61.5) antibodies were used for staining before sorting.\n(§5) For Th1-skew: 5 ng/mL IL-12 (Peprotech cat. #210-12) and 10 µg/mL αIL-4 (BioXCell clone 11B11) were added to culture. For Th2-skew: 10 ng/mL IL-4 (Peprotech) and 10 μg/mL αIFN-γ (BioXCell clone R4-6A2) were added to culture. For Th17-skew: 10 ng/mL IL-6 (Peprotech), 5 ng/mL IL-23 (R&D), 0.5 ng/mL TGF-β (Peprotech), 10 μg/mL al-4 (BioXCell clone 11B11), and 10 μg/mL αIFN-γ (BioXCell clone R4-6A2) were added to culture. For Treg-skew: 2 ng/mL TGF-β (Peprotech) and 100 U/mL IL-2 (Roche) were added to culture. Sodium Propionate, sodium acetate, sodium butyrate and sodium chloride (all from Sigma-Aldrich) were solubilized in media and added to culture. […]"}, "[5]": {"tested_on": "colonic Tregs", "details": "Furusawa et al. 2013; cited from earlier work"}, "[6]": {"tested_on": "CD4+ CD25− naïve T cells", "assay": "In vitro naïve T cell differentiation, Th1-skew (IFN-γ+)", "assay_type": "cell-based, C57BL/6 mice", "details": "Th1 skewing conditions, vs solvent control", "experimental": "as §3, §4, §5"}, "[7]": {"tested_on": "T cells of spleen and mesenteric lymph nodes", "assay": "In vivo acute T cell activation (αCD3) in spleen and MLN", "set-up": "species or system mice", "details": "administered with αCD3 at 0 and 48 hrs"}, "[8]": {"details": "Preliminary TDMM screen, DMF control = Baseline"}}, "note": "Entries after “also recorded” stand apart in the source; their conditions may differ. At least one compound was matched to its structure with a doubt left.", "data": [{"smiles": "O=C(O)C(=O)Cc1c[nH]c2ccccc12", "note": "[Indole-3-pyruvate]", "values": [{"measurement": "Th17 Inhibition", "setting": "[1]; [8]", "result": "+"}, {"measurement": "Treg Induction", "setting": "[2]; [8]", "result": "+"}]}, {"smiles": "CCCC(=O)O", "note": "[butyrate, reference compound]", "values": [{"measurement": "differentiation of naïve T cells to Treg cells", "setting": "[3]", "result": "promoted differentiation of naïve T cells to Treg cells"}, {"measurement": "effect on % IL-17+ cells / Th17 differentiation", "setting": "[1]; Th17 skewing conditions, vs DMF control", "result": "increases both Th17 and Treg development; also recorded: increase in % IL-17+ cells"}, {"measurement": "effect on % Th2 cells (IL-4+)", "setting": "[4]", "result": "inhibition of Th2 differentiation"}, {"measurement": "colonic differentiation of Tregs", "setting": "[5]", "result": "induces colonic differentiation of Tregs in mice"}, {"measurement": "effect on % Th1 cells (IFN-γ+)", "setting": "[6]", "result": "increased % IFN-γ+ cells"}, {"measurement": "effect on % Th1 cells (IFN-γ+)", "setting": "[6]; listed as 1-butyrate", "result": "induction of Th1 differentiation"}, {"measurement": "effect on % FoxP3+ cells / Treg differentiation", "setting": "[2]; Treg skewing conditions, vs DMF control", "result": "increases both Th17 and Treg development; also recorded: increased"}, {"measurement": "Treg differentiation in vivo (MLN)", "setting": "[7]; mesenteric lymph nodes", "result": "augments Treg differentiation in vivo"}, {"measurement": "Th1 differentiation in vivo (% IFN-γ+ CD4+ cells, spleen)", "setting": "[7]; spleen", "result": "augments Th1 differentiation in vivo"}]}]}
